Experimental data: patent publication US20240140953A1, “INHIBITORS OF MENIN-MLL INTERACTION” (BIOMEA FUSION, INC., priority 2018, published 2024)

Legend:
[1] = test system: MOLM-13 (MLL-AF9); assay: Proliferation study, CellTiterGlo, 4 days (Example 102), MOLM-13; type: cell-based, human; details: MOLM-13, 4 days treatment, slope of concentration response curve
Text: (§1) The objective of the study was to evaluate the ability of representative compounds of the present invention, inhibitors of Menin/MLL interaction to inhibit cell proliferation. The proliferation inhibitory effect was investigated in two human MLL-leukemia cells selected on the bases of MLL fusion protein and listed in Table 102. HL-60 cell line was used as negative control.
(§2) ATP is present in all metabolically active cells and is considered as a marker for cell viability and proliferation. The metabolic cell activity was determined using the CellTiter-Glo kit from Promega, an ATP monitoring system based on the production of luminescence by the reaction of ATP with added UltraGlo® recombinant luciferase (Kawano et al., 2016), according to the supplier's experimental recommendations.
(§3) The described assay evaluates the ability of 4 representative compounds to inhibit the cell proliferation in the human MLL-leukemia cells plus a negative control cell line.
(§4) The assay provides potency values (IC50) for each test compound at a single time point Day 4 (T4).
(§5) Seven concentrations of the compounds (2.00E-05-6.67E-06-2.22E-06-7.41E-07-2.47E-07-8.23E-08-2.74E-08M), were assessed in duplicate in an individual test occasion in all the cell lines. MI-503 (Borkin et al., 2015) was used as reference compound and was tested at the same concentrations as the NCEs. 100% of proliferation is represented by the untreated cells (0.2% DMSO). The cell growth was monitored up to 4 days in culture.
(§6) MV4-11, MOLM-13 and HL-60 cells (see Table 2) were maintained in RPMI-1640 medium (Invitrogen, Cat. n. 618700, Batch n. 1965930) supplemented with 10% of Heat Inactivated FBS (Invitrogen, Cat n. 10500, Batch n. 08Q8078K) and 1% Pen-Strep (Invitrogen, Cat. N. 15140, Batch n. 1910859) and cultured at 37° C. in a humidified incubator with 5% CO2. All the cell lines grow in suspension and the cell density was maintained in a range of 2×10^5-1×10^6 viable cells/ml. Cells were pelleted at 130 g×5 min and conditioned medium was used to dilute the cell suspension.
(§7) Test items were dissolved in glass vials at 10 mM in DMSO with purity ≥99.9% (Sigma, D8418, batch n. SHBH4245V) and stored at −20° C. in 1.5 mL Eppendorf tubes.
(§8) Serial dilutions 1 to 3 in DMSO 100% were prepared starting from a 10 mM stock solutions to generate 7 points concentration response curve (CRC).
(§9) For each plate to test, one 0.4 μL copy plate and four 0.3 μL copy plates were then stamped into 96-well plates not treated for cell adhesion (Sarstedt—cat.no. 82.1581.001) by acoustic liquid Handling, Echo, at a concentration which was 500 fold the final assay concentration. Stamped plates were stored at −20° C. The final concentrations for the reference compound, MI-503, and the test items were: 2.00E-05, 6.67E-06, 2.22E-06, 7.41E-07, 2.47E-07, 8.23E-08 and 2.74E-08 M.
(§10) Cells were plated in 96-well flat bottom microtiter plates at cell density of 15,000 cells/ml for HL-60, 1000 cells/ml for MOLM-13 and 10,000 cell/ml for MV4-11. Cells were treated with 0.2% DMSO (Sigma, D8418, batch n. SHBH4245V) or serial dilutions of compounds (0.027 μM-20 μM) in DMSO (0.2% final concentration). Cells were incubated in a 5% CO2 incubator at 37° C. for 4 days. A CellTiterGlo viability assay (Promega) was employed. Luminescence was read by using VictorV (Perkin Elmer) multilabel plate reader using the standard protocol for luminescence in 96 well plate. The experiment was performed in duplicate.
(§11) Data were expressed as % of inhibition compared to the 0.2% DMSO negative control, and was calculated as follows: […]
(§12) CRCs were analysed by GraphPad and IC50 values were calculated by non-linear regression using 4 parameter-logistic equation. IC50 (μM) values were reported in the final data table. The curve fittings were performed leaving free all the parameters. Any constrain were reported in the results table.

[2] = test system: HL-60; assay: Proliferation study, CellTiterGlo, 4 days (Example 102), HL-60; type: cell-based; details: HL-60, 4 days treatment, slope of concentration response curve
Text: as §1, §2, §3, §4, §5, §6, §7, §8, §9
Cells were plated in 96-well flat bottom microtiter plates at cell density of 15,000 cells/ml for HL-60, 1000 cells/ml for MOLM-13 and 10,000 cell/ml for MV4-11. […] Luminescence was read by using VictorV (Perkin Elmer) multilabel plate reader using the standard protocol for luminescence in 96 well plate. […]
as §11
CRCs were analysed by GraphPad and IC50 values were calculated by non-linear regression using 4 parameter-logistic equation. […]

[3] = test system: MV4-11 (MLL-AF4); assay: Proliferation study, CellTiterGlo, 4 days (Example 102), MV4-11; type: cell-based, human; details: MV4-11, 4 days treatment, slope of concentration response curve
Text: as §1, §2, §3, §4, §5, §6, §7, §8, §9, §10, §11, §12

Compound | MOLM-13 (MLL-AF9) slope [1] | HL-60 slope [2] | MV4-11 (MLL-AF4) slope [3]
O=C(Nc1ccc(-c2cc3c(N4CCOCC4)ncnc3[nH]2)cc1)Nc1cc(-c2cccnc2)n[nH]1 [Compound 9, 1-{4-[4-(morpholin-4-yl)-7H-pyrrolo[2,3-d]pyrimidin-6-yl]phenyl}-3-[3-(pyridin-3-yl)-1H-pyrazol-5-yl]urea] | 1.1 | 0.7 | 0.8
O=C(Cc1cc(-c2cccnc2)n[nH]1)Nc1ccc(-c2cc3c(N4CCOCC4)ncnc3[nH]2)cc1 [Compound 10, N-{4-[4-(morpholin-4-yl)-7H-pyrrolo[2,3-d]pyrimidin-6-yl]phenyl}-2-[3-(pyridin-3-yl)-1H-pyrazol-5-yl]acetamide] | 2.5 | 1.6 | 2.9
Cn1nc(-c2cccnc2)cc1CC(=O)Nc1ccc(-c2cc3c(N4CCOCC4)ncnc3[nH]2)cc1 [Compound 11, 2-[1-methyl-3-(pyridin-3-yl)-1H-pyrazol-5-yl]-N-{4-[4-(morpholin-4-yl)-7H-pyrrolo[2,3-d]pyrimidin-6-yl]phenyl}acetamide] | 2.6 | 1.1 | 1.5
O=C(Cc1cc(-c2cccnc2)n[nH]1)Nc1ccc(-c2nc3c(N4CCOCC4)ncnc3[nH]2)cc1 [Compound 12, N-{4-[6-(morpholin-4-yl)-9H-purin-8-yl]phenyl}-2-[3-(pyridin-3-yl)-1H-pyrazol-5-yl]acetamide] | 13.1 | – | 4.1
Cc1cn(-c2ncnc3[nH]c(-c4ccc(NC(=O)Cc5cc(-c6cccnc6)n[nH]5)cc4)cc23)cn1 [Compound 13, N-{4-[4-(4-methyl-1H-imidazol-1-yl)-7H-pyrrolo[2,3-d]pyrimidin-6-yl]phenyl}-2-[3-(pyridin-3-yl)-1H-pyrazol-5-yl]acetamide] | 1.4 | 1.1 | 1.1
Cc1c(CN2CCC(Nc3ncnc4sc(CC(F)(F)F)cc34)CC2)ccc2c1cc(C#N)n2Cc1cn[nH]c1 [MI-503, reference compound] | 1 | 1 | 1.4
